This assay addresses His-Suv39h1-1-167-EQEmut (mouse) (UniProt O54864). Briefly: far-Western, overlay or dot blot; lysates of E. coli expressing His-Suv39h1 full-length and truncation fragments resolved by SDS-PAGE, transferred to nitrocellulose, denatured/renatured and incubated with purified recombinant GST fusion protein; bound protein detected with anti-GST; only the binder purified.

Sequences of proteins named here, by UniProt entry; tags and fusion partners are left off. A change or cut given only in a name is not applied to a line headed by its entry.
UniProt O54864: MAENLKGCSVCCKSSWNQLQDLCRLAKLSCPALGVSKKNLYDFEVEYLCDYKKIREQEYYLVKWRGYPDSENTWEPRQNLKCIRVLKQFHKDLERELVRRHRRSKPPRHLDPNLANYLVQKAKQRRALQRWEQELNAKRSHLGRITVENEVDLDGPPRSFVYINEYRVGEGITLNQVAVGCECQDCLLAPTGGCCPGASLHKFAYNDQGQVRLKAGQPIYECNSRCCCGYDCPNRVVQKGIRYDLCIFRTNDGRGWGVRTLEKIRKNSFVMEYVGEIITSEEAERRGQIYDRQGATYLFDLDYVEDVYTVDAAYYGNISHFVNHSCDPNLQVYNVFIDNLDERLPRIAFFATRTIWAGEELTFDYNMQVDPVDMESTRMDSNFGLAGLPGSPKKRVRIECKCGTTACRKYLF
UniProt P63279: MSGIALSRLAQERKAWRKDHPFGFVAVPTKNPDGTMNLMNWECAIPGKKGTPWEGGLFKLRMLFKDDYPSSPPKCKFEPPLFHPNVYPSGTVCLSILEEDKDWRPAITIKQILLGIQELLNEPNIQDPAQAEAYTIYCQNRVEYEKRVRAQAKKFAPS

Results are given in words; binding and its absence hold for the method and conditions named. A result given as binding can be weak or reduced; the word gives no strength.

For “GST-Ubc9 (from UniProt P63279 1-158) (enzyme)”, the binding entry is “binds”.

The record behind these values is PMC4960310.
